Assay: general procedure: Fmoc solid-phase peptide synthesis; Rink-TentaGel resin; PAL Peg-PS resin; HCTU
Details: whole synthesis, HPLC (methods B, C)

| Substance | purity (crude or final not stated) [%] |
| --- | --- |
| Leu30,Gln34]PP | 96.5 |
| Ile31,Gln34]PP | 97.1 |
| [Val31,Gln34]PP | 96.3 |
| [Arg26,Met30]PYY | 91.3 |
| Glu4,Arg26]PYY | 95.3 |
| His26,Gln34]PP | 95.0 |
| [Ala1,Glu4,Arg26,Met30]PYY | 96.4 |

Reference: patent US20080261871A1 (priority 2004, published 2008)
